Binding data for 14 molecules are collected here from PMC7771966, “Quantitative glycoproteomics reveals cellular substrate selectivity of the ER protein quality control sensors UGGT1 and UGGT2” (eLife, 2020).

By UniProt entry, the sequences of proteins in these tests, tags left out. Residues count along the entry.
UniProt P15253, residues 18-418: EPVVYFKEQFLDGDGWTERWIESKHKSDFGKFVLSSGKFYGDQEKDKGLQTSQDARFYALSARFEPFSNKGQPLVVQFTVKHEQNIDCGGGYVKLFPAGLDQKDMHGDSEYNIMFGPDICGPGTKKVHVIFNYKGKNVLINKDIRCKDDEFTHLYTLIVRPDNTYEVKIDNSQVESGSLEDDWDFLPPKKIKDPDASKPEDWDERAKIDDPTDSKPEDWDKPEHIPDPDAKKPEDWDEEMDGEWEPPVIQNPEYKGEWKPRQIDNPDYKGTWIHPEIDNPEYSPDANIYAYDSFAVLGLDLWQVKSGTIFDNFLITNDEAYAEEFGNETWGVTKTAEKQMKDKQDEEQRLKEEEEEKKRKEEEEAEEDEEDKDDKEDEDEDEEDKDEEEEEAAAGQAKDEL
UniProt Q04900, residues 24-197: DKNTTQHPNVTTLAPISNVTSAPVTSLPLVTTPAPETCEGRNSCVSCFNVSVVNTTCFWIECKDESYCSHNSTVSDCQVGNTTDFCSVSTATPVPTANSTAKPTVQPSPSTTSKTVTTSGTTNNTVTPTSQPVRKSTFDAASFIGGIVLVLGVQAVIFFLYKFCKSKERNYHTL
UniProt P54802, residues 24-743: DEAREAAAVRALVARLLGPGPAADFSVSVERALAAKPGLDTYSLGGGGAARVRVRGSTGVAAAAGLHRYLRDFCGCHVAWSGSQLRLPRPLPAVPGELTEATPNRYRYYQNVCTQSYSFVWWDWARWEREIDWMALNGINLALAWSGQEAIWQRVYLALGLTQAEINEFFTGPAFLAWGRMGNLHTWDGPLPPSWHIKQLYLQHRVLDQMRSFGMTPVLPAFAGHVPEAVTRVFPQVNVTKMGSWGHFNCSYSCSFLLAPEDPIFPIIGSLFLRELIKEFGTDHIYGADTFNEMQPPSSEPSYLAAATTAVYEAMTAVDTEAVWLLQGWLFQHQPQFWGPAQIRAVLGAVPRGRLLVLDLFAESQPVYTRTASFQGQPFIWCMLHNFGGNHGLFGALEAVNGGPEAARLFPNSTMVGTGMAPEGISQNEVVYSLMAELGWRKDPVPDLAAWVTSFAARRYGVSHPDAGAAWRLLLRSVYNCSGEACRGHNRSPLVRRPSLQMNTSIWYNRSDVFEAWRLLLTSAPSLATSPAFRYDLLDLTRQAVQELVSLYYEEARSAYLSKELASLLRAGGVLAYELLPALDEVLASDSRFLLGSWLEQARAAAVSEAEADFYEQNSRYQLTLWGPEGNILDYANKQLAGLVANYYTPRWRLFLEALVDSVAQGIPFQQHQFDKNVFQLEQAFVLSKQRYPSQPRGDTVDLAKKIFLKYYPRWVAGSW
UniProt O15118, residues 23-1278: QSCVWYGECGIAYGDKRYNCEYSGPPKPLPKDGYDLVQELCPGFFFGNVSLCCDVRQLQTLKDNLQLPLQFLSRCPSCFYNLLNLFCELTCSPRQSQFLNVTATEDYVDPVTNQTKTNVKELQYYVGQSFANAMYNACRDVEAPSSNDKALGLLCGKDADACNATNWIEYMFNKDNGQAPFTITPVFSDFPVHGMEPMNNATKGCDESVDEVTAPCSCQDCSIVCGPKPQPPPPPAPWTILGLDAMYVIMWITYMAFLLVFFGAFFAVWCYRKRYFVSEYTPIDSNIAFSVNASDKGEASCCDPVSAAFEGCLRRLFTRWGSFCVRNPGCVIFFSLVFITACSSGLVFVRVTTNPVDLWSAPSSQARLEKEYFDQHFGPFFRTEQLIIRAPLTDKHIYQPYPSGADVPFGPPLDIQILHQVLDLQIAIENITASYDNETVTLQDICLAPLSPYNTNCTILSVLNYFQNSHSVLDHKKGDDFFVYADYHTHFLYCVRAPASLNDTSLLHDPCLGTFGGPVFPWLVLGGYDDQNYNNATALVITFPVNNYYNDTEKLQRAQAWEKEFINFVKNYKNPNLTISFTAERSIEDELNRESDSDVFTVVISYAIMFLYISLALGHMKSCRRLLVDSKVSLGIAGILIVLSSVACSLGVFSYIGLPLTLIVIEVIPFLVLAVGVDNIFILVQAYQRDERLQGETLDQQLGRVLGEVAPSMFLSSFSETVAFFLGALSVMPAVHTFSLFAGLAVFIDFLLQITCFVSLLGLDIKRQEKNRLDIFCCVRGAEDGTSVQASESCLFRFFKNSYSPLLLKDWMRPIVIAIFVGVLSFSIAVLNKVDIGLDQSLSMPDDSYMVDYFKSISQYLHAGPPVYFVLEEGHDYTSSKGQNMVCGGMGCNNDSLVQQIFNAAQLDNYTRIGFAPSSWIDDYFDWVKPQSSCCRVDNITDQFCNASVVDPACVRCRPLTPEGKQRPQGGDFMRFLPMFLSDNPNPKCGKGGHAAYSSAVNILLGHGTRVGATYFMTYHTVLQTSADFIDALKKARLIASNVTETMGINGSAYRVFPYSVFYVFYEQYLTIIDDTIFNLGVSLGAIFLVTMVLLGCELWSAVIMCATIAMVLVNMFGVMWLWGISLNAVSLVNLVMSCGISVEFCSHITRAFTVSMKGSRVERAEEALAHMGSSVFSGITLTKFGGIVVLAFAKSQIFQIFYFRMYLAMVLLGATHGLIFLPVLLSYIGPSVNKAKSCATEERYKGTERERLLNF
UniProt P11717, residues 41-2491: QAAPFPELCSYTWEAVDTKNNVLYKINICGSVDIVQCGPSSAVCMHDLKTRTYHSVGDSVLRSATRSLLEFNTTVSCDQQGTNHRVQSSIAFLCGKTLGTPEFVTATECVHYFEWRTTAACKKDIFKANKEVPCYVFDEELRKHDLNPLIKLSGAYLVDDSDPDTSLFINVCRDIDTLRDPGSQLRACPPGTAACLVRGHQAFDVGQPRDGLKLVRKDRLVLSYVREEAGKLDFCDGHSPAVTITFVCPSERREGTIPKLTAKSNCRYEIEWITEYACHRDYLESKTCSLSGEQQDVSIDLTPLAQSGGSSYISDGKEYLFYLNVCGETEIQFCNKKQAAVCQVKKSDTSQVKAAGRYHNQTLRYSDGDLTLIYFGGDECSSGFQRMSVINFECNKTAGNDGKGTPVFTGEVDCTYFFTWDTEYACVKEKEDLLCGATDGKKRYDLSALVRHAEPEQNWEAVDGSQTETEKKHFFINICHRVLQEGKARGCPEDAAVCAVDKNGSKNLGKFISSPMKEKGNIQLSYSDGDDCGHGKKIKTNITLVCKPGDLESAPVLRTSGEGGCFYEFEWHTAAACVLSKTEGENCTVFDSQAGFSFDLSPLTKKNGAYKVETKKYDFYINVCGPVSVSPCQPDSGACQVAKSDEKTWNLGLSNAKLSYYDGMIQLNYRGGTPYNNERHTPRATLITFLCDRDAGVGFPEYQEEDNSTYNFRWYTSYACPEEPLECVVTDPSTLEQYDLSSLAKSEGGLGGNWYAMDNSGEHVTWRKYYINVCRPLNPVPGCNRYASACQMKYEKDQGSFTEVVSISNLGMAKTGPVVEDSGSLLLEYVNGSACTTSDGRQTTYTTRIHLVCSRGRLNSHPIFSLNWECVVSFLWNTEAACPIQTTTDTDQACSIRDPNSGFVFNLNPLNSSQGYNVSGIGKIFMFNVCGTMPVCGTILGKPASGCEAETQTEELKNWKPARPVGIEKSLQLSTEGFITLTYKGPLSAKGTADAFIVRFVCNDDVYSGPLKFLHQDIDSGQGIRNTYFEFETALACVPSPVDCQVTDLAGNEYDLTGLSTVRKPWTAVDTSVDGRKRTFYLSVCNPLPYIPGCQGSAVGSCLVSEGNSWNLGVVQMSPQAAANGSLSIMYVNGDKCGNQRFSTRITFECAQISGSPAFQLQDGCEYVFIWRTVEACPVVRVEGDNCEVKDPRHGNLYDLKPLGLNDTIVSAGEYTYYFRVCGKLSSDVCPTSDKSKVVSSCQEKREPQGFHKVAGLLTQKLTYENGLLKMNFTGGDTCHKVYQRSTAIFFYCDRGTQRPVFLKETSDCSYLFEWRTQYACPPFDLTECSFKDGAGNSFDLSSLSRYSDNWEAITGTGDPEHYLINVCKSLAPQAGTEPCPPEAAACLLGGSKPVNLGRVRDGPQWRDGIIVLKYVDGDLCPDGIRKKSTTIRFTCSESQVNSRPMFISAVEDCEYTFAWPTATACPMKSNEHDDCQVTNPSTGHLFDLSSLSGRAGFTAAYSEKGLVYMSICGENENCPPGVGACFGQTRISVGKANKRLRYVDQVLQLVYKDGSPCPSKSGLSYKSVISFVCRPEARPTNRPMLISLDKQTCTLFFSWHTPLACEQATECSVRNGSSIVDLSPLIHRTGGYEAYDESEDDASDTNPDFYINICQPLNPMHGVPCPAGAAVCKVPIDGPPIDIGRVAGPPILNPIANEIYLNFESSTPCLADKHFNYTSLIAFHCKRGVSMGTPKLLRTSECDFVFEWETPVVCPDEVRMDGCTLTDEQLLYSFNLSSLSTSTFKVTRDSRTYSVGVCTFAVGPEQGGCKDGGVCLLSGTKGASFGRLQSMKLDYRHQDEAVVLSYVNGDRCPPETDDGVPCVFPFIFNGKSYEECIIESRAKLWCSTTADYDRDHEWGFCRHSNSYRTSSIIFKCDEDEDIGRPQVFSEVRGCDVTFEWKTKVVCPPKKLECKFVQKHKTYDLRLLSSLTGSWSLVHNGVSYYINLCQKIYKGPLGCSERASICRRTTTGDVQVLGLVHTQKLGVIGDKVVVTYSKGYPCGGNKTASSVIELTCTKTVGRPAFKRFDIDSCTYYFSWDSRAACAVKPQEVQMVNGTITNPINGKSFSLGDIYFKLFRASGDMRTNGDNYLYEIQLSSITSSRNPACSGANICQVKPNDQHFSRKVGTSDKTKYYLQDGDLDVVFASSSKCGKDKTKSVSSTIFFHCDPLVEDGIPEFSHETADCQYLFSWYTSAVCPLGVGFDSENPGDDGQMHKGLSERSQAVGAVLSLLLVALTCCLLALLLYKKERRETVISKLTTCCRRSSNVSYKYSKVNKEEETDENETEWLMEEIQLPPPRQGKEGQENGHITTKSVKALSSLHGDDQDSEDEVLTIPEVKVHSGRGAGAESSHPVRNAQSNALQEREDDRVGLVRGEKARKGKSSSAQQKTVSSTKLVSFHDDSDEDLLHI
UniProt P08069, residues 31-1367: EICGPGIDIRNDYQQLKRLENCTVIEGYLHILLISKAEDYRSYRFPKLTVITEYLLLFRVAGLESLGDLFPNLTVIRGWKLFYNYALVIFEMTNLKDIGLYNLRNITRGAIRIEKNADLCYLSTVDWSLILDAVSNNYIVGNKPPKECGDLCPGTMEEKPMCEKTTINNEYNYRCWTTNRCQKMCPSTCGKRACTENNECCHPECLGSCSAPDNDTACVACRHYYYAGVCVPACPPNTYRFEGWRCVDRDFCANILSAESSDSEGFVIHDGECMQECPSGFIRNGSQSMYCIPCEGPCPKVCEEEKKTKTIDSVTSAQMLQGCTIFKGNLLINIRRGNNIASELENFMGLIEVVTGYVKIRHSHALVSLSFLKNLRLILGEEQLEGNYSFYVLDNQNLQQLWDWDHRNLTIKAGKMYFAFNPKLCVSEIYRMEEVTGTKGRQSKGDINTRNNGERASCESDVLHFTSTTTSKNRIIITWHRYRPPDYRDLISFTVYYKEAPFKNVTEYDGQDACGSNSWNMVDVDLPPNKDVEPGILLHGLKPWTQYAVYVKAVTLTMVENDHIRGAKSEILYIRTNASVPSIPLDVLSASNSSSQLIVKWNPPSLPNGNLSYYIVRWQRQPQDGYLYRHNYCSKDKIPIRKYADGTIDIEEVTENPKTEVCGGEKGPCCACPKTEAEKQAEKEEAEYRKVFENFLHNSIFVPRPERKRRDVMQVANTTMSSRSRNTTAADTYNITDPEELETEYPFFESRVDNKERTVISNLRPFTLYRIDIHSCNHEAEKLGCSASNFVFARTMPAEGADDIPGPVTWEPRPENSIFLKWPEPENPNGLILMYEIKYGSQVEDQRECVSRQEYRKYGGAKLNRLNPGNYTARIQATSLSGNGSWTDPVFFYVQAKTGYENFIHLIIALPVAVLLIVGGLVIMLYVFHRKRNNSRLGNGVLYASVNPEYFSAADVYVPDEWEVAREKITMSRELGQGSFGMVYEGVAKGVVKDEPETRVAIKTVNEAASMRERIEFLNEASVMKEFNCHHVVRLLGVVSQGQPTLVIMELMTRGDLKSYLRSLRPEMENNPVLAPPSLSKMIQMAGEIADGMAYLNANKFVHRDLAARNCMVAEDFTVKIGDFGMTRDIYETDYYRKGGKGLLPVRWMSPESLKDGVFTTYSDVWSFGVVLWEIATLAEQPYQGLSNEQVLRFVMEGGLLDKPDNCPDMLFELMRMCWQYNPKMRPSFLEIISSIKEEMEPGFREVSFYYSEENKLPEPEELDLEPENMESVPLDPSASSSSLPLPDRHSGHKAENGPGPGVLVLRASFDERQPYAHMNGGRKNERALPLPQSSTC

Read-outs that look alike come from different tables or passages of the source. Results are given in words; binding and its absence hold for the method and conditions named. In cells and extracts the contact can be indirect. Here binding means that the protein was enriched with, or labelled near, the bait; the list need not be complete.

The target of test [1] is glutathione S-transferase-calreticulin (GST-CRT) (UniProt P15253). Put plainly: affinity purification with mass spectrometry; GST-CRT or GST-CRT-Y109A (100 ug) on glutathione beads, 14 h at 4 C with pre-cleared lysate (20 mM MES, 100 mM NaCl, 30 mM Tris pH 7.5, 0.5% Triton X-100) of ALG6-/-, ALG6/UGGT1-/- or ALG6/UGGT2-/- HEK293-EBNA1-6E cells treated with 500 uM DNJ for 1 h; TMT labelling, PNGaseF; hits at threefold or more GST-CRT over GST-CRT-Y109A; only the target purified.

Test [2] has the same target. Described as above. This is another data set of the same source.

For CD164 (from UniProt Q04900 24-197), the binding entry in test [1] is on record as “binds”.

For the molecule “Integrin β-1 (from UniProt P05556 21-798)”, the binding result in test [1] is reported as “binds”.

“NAGLU (from UniProt P54802 24-743) (enzyme)”: the binding entry in test [1] is “binds”.

Take NPC1 (from UniProt O15118 23-1278): in test [1], the binding result is recorded as “binds”.

In the case of “Nuclear pore membrane glycoprotein 210 (NUP210) (from UniProt Q8TEM1 27-1887)”, the binding entry in test [1] is “binds”.

For “cation-independent mannose-6-phosphate receptor (CI-M6PR) (from UniProt P11717 41-2491)”, in test [1], the binding result is listed as “binds”.

Consider “insulin-like growth factor type one receptor (IGF-1R) (from UniProt P08069 31-1367)”, for which the binding entry in test [1] was “binds”.

B1: Prosaposin (protein, UniProt P07602 17-524)
chain: GPVLGLKECTRGSAVWCQNVKTASDCGAVKHCLQTVWNKPTVKSLPCDICKDVVTAAGDMLKDNATEEEILVYLEKTCDWLPKPNMSASCKEIVDSYLPVILDIIKGEMSRPGEVCSALNLCESLQKHLAELNHQKQLESNKIPELDMTEVVAPFMANIPLLLYPQDGPRSKPQPKDNGDVCQDCIQMVTDIQTAVRTNSTFVQALVEHVKEECDRLGPGMADICKNYISQYSEIAIQMMMHMQPKEICALVGFCDEVKEMPMQTLVPAKVASKNVIPALELVEPIKKHEVPAKSDVYCEVCEFLVKEVTKLIDNNKTEKEILDAFDKMCSKLPKSLSEECQEVVDTYGSSILSILLEEVSPELVCSMLHLCSGTRLPALTVHVTQPKDGGFCEVCKKLVGYLDRNLEKNSTKQEILAALEKGCSFLPDPYQKQCDQFVAEYEPVLIEILVEVMDPSFVCLKIGACPSAHKPLLGTEKCIWGPSYWCQNTETAAQCNAVEHCKRHVWN
modifications: monoglucosylated N-glycans (reglucosylated by the UGGTs; sites not stated)
Turning to B1, the binding entry in test [2] is on record as “binds”.

B2: alpha-galactosidase A (enzyme, UniProt P06280 32-429)
chain: LDNGLARTPTMGWLHWERFMCNLDCQEEPDSCISEKLFMEMAELMVSEGWKDAGYEYLCIDDCWMAPQRDSEGRLQADPQRFPHGIRQLANYVHSKGLKLGIYADVGNKTCAGFPGSFGYYDIDAQTFADWGVDLLKFDGCYCDSLENLADGYKHMSLALNRTGRSIVYSCEWPLYMWPFQKPNYTEIRQYCNHWRNFADIDDSWKSIKSILDWTSFNQERIVDVAGPGGWNDPDMLVIGNFGLSWNQQVTQMALWAIMAAPLFMSNDLRHISPQAKALLQDKDVIAINQDPLGKQGYQLRQGDNFEVWERPLSGLAWAVAMINRQEIGGPRSYTIAVASLGKGVACNPACFITQLLPVKRKLGFYEWTSRLRSHINPTGTVLLQLENTMQMSLKDLL
modifications: monoglucosylated N-glycans (reglucosylated by the UGGTs; sites not stated)
In the case of B2, the binding result in test [2] was “binds”.

B3: FUCA1 (enzyme, UniProt P04066 32-466)
chain: QPPRRYTPDWPSLDSRPLPAWFDEAKFGVFIHWGVFSVPAWGSEWFWWHWQGEGRPQYQRFMRDNYPPGFSYADFGPQFTARFFHPEEWADLFQAAGAKYVVLTTKHHEGFTNWPSPVSWNWNSKDVGPHRDLVGELGTALRKRNIRYGLYHSLLEWFHPLYLLDKKNGFKTQHFVSAKTMPELYDLVNSYKPDLIWSDGEWECPDTYWNSTNFLSWLYNDSPVKDEVVVNDRWGQNCSCHHGGYYNCEDKFKPQSLPDHKWEMCTSIDKFSWGYRRDMALSDVTEESEIISELVQTVSLGGNYLLNIGPTKDGLIVPIFQERLLAVGKWLSINGEAIYASKPWRVQWEKNTTSVWYTSKGSAVYAIFLHWPENGVLNLESPITTSTTKITMLGIQGDLKWSTDPDKGLFISLPQLPPSAVPAEFAWTIKLTGVK
modifications: monoglucosylated N-glycans (reglucosylated by the UGGTs; sites not stated)
On to B3, for which the binding result in test [2] is given as “binds”.

B4: α-N-acetylgalactosaminidase (enzyme, UniProt P17050 18-411)
chain: LDNGLLQTPPMGWLAWERFRCNINCDEDPKNCISEQLFMEMADRMAQDGWRDMGYTYLNIDDCWIGGRDASGRLMPDPKRFPHGIPFLADYVHSLGLKLGIYADMGNFTCMGYPGTTLDKVVQDAQTFAEWKVDMLKLDGCFSTPEERAQGYPKMAAALNATGRPIAFSCSWPAYEGGLPPRVNYSLLADICNLWRNYDDIQDSWWSVLSILNWFVEHQDILQPVAGPGHWNDPDMLLIGNFGLSLEQSRAQMALWTVLAAPLLMSTDLRTISAQNMDILQNPLMIKINQDPLGIQGRRIHKEKSLIEVYMRPLSNKASALVFFSCRTDMPYRYHSSLGQLNFTGSVIYEAQDVYSGDIISGLRDETNFTVIINPSGVVMWYLYPIKNLEMSQQ
modifications: monoglucosylated N-glycans (reglucosylated by UGGT2; sites not stated)
As for B4, the binding result in test [2] was “binds”.

B5: ectonucleotide pyrophosphatase/phosphodiesterase family member 1 (ENPP1) (enzyme, human (endogenous in HEK293-EBNA1-6E), UniProt P22413 1-925, looked up)
chain: MERDGCAGGGSRGGEGGRAPREGPAGNGRDRGRSHAAEAPGDPQAAASLLAPMDVGEEPLEKAARARTAKDPNTYKVLSLVLSVCVLTTILGCIFGLKPSCAKEVKSCKGRCFERTFGNCRCDAACVELGNCCLDYQETCIEPEHIWTCNKFRCGEKRLTRSLCACSDDCKDKGDCCINYSSVCQGEKSWVEEPCESINEPQCPAGFETPPTLLFSLDGFRAEYLHTWGGLLPVISKLKKCGTYTKNMRPVYPTKTFPNHYSIVTGLYPESHGIIDNKMYDPKMNASFSLKSKEKFNPEWYKGEPIWVTAKYQGLKSGTFFWPGSDVEINGIFPDIYKMYNGSVPFEERILAVLQWLQLPKDERPHFYTLYLEEPDSSGHSYGPVSSEVIKALQRVDGMVGMLMDGLKELNLHRCLNLILISDHGMEQGSCKKYIYLNKYLGDVKNIKVIYGPAARLRPSDVPDKYYSFNYEGIARNLSCREPNQHFKPYLKHFLPKRLHFAKSDRIEPLTFYLDPQWQLALNPSERKYCGSGFHGSDNVFSNMQALFVGYGPGFKHGIEADTFENIEVYNLMCDLLNLTPAPNNGTHGSLNHLLKNPVYTPKHPKEVHPLVQCPFTRNPRDNLGCSCNPSILPIEDFQTQFNLTVAEEKIIKHETLPYGRPRVLQKENTICLLSQHQFMSGYSQDILMPLWTSYTVDRNDSFSTEDFSNCLYQDFRIPLSPVHKCSFYKNNTKVSYGFLSPPQLNKNSSGIYSEALLTTNIVPMYQSFQVIWRYFHDTLLRKYAEERNGVNVVSGPVFDFDYDGRCDSLENLRQKRRVIRNQEILIPTHFFIVLTSCKDTSQTPLHCENLDTLAFILPHRTDNSESCVHGKHDSSWVEELLMLHRARITDVEHITGLSFYQQRKEPVSDILKLKTHLPTFSQED
modifications: monoglucosylated N-glycans (reglucosylated by the UGGTs; sites not stated)
notes: ectonucleotide pyrophosphatase/phosphodiesterase family member 1, human, endogenous; source: endogenous, lysate of CRISPR-edited HEK293-EBNA1-6E cells (ALG6-/- background), DNJ treated
Take B5: in test [2], the binding result was “binds”.

B6: arylsulfatase A (enzyme, UniProt P15289 19-507)
chain: RPPNIVLIFADDLGYGDLGCYGHPSSTTPNLDQLAAGGLRFTDFYVPVSLCTPSRAALLTGRLPVRMGMYPGVLVPSSRGGLPLEEVTVAEVLAARGYLTGMAGKWHLGVGPEGAFLPPHQGFHRFLGIPYSHDQGPCQNLTCFPPATPCDGGCDQGLVPIPLLANLSVEAQPPWLPGLEARYMAFAHDLMADAQRQDRPFFLYYASHHTHYPQFSGQSFAERSGRGPFGDSLMELDAAVGTLMTAIGDLGLLEETLVIFTADNGPETMRMSRGGCSGLLRCGKGTTYEGGVREPALAFWPGHIAPGVTHELASSLDLLPTLAALAGAPLPNVTLDGFDLSPLLLGTGKSPRQSLFFYPSYPDEVRGVFAVRTGKYKAHFFTQGSAHSDTTADPACHASSSLTAHEPPLLYDLSKDPGENYNLLGGVAGATPEVLQALKQLQLLKAQLDAAVTFGPSQVARGEDPALQICCHPGCTPRPACCHCPDPHA
modifications: monoglucosylated N-glycans (reglucosylated by UGGT2; sites not stated)
Regarding B6, the binding result in test [2] is given as “binds”.

B7: scavenger receptor class B member 1 (SR-BI) (receptor, UniProt Q8WTV0 1-552)
chain: MGCSAKARWAAGALGVAGLLCAVLGAVMIVMVPSLIKQQVLKNVRIDPSSLSFNMWKEIPIPFYLSVYFFDVMNPSEILKGEKPQVRERGPYVYREFRHKSNITFNNNDTVSFLEYRTFQFQPSKSHGSESDYIVMPNILVLGAAVMMENKPMTLKLIMTLAFTTLGERAFMNRTVGEIMWGYKDPLVNLINKYFPGMFPFKDKFGLFAELNNSDSGLFTVFTGVQNISRIHLVDKWNGLSKVDFWHSDQCNMINGTSGQMWPPFMTPESSLEFYSPEACRSMKLMYKESGVFEGIPTYRFVAPKTLFANGSIYPPNEGFCPCLESGIQNVSTCRFSAPLFLSHPHFLNADPVLAEAVTGLHPNQEAHSLFLDIHPVTGIPMNCSVKLQLSLYMKSVAGIGQTGKIEPVVLPLLWFAESGAMEGETLHTFYTQLVLMPKVMHYAQYVLLALGCVLLLVPVICQIRSQVGAGQRAARADSHSLACWGKGASDRTLWPTAAWSPPPAAVLRLCRSGSGHCWGLRSTLASFACRVATTLPVLEGLGPSLGGGTGS
modifications: monoglucosylated N-glycans (reglucosylated by UGGT1; sites not stated)
Consider B7, for which, in test [2], the binding entry is recorded as “binds”.
